In the supplement of paper PMC6411743:
± gives the standard deviation of the averaged measurements. The list shows a part of the results.

Amino acid sequences for entries named in this document (tags omitted). A change or cut given only in a name is not applied to a line headed by its entry.
UniProt Q6V1X1: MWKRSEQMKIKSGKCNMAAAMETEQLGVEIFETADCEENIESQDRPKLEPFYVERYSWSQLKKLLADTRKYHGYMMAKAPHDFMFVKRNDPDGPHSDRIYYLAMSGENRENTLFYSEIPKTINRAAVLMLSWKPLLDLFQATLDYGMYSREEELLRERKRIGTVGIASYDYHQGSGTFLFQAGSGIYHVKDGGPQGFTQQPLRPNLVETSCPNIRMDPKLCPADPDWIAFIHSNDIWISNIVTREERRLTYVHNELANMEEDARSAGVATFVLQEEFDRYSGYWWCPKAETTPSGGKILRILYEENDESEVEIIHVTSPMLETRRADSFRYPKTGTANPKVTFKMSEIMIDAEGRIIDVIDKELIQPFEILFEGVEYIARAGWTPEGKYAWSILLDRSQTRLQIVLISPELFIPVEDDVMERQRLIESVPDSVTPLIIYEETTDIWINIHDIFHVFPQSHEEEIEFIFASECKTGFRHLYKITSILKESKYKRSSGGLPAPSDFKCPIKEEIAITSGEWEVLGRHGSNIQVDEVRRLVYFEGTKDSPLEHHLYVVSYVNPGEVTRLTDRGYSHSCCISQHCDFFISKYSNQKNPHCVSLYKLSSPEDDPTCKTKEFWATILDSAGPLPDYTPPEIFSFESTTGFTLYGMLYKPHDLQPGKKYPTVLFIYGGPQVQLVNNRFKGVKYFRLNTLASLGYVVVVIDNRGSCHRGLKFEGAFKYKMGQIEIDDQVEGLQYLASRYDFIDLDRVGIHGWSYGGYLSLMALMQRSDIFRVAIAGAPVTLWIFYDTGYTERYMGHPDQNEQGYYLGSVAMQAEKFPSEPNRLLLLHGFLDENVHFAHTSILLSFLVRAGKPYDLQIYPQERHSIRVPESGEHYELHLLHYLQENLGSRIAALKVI
UniProt P15735: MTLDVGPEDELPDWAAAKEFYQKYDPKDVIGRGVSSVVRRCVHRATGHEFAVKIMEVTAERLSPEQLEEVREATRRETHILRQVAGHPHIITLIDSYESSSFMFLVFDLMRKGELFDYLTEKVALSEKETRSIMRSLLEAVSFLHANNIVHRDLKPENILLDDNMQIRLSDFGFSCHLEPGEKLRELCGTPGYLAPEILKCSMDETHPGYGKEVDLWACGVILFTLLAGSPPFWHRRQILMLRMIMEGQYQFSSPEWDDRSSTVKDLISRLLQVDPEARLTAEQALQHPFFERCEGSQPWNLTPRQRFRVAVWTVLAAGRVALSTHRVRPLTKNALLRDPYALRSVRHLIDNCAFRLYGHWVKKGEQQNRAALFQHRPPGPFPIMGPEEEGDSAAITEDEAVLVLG
UniProt Q9Y421: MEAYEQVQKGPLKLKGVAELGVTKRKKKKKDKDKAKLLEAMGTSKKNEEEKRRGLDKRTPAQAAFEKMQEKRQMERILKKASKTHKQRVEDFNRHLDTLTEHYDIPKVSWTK
UniProt Q96DB5: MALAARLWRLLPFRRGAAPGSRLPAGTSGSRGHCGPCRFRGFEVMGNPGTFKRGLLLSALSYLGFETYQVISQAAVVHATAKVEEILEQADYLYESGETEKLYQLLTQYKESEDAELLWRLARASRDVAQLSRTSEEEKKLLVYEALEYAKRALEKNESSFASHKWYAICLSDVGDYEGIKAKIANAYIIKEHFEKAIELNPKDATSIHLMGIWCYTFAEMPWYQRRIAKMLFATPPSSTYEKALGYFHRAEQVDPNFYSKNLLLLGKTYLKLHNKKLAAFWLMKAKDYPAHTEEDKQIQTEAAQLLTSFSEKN
UniProt Q96AB3: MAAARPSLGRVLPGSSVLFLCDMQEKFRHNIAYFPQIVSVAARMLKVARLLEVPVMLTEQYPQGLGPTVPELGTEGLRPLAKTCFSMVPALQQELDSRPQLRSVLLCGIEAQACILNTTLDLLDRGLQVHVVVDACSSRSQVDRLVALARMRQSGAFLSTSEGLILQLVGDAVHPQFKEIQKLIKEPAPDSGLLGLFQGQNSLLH
UniProt Q9BZV1: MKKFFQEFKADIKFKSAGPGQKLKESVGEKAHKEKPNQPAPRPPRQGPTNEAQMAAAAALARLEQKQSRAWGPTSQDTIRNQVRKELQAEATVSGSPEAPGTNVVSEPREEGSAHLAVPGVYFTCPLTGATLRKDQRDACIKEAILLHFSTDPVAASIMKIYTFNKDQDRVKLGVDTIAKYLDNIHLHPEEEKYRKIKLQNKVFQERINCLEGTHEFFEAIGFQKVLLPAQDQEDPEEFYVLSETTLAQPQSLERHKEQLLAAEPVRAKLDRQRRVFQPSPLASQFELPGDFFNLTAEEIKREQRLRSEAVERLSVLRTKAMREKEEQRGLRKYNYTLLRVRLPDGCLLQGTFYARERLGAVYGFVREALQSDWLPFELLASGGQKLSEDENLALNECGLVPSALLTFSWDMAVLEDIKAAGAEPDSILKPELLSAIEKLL
UniProt Q96IG2: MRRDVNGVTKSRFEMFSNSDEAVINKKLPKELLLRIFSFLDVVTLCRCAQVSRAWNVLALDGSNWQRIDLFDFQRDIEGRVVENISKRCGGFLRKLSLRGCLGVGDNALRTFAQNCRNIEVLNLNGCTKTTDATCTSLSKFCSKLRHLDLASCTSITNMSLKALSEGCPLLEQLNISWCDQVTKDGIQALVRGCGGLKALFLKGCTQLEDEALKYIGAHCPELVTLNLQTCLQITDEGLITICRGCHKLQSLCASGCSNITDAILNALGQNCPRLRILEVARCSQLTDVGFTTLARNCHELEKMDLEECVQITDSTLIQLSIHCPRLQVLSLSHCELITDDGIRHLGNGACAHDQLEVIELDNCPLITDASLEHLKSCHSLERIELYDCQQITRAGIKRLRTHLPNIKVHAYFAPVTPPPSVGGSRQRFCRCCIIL
UniProt Q9H8T0: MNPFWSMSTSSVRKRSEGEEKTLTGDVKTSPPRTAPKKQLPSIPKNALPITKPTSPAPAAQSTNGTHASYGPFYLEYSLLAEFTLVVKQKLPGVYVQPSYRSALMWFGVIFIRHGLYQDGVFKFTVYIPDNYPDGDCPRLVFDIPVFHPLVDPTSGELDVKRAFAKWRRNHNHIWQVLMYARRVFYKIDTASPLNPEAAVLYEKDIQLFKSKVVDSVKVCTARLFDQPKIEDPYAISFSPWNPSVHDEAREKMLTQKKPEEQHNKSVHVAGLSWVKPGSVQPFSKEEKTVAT
UniProt Q9H8P0: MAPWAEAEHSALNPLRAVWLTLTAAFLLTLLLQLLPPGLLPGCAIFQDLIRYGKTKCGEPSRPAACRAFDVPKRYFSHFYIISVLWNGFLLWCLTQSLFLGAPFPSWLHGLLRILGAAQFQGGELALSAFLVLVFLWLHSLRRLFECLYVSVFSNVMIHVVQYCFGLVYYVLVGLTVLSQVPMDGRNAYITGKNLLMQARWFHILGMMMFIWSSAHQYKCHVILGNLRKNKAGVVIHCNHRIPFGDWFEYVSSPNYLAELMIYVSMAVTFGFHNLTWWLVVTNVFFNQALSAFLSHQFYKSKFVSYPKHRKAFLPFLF
UniProt O95067, whole entry, looked up: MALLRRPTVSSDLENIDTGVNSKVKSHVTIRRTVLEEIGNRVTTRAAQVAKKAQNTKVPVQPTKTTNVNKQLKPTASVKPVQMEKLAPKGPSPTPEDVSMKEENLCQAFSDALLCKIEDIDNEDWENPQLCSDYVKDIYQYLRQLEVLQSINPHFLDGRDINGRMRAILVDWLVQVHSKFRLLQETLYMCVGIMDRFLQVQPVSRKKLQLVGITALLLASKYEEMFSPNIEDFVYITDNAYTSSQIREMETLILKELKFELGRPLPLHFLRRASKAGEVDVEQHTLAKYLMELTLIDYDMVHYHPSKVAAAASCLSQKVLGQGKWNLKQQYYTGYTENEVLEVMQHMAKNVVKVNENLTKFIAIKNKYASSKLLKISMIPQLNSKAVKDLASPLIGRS
UniProt Q5VYK3, whole entry, looked up: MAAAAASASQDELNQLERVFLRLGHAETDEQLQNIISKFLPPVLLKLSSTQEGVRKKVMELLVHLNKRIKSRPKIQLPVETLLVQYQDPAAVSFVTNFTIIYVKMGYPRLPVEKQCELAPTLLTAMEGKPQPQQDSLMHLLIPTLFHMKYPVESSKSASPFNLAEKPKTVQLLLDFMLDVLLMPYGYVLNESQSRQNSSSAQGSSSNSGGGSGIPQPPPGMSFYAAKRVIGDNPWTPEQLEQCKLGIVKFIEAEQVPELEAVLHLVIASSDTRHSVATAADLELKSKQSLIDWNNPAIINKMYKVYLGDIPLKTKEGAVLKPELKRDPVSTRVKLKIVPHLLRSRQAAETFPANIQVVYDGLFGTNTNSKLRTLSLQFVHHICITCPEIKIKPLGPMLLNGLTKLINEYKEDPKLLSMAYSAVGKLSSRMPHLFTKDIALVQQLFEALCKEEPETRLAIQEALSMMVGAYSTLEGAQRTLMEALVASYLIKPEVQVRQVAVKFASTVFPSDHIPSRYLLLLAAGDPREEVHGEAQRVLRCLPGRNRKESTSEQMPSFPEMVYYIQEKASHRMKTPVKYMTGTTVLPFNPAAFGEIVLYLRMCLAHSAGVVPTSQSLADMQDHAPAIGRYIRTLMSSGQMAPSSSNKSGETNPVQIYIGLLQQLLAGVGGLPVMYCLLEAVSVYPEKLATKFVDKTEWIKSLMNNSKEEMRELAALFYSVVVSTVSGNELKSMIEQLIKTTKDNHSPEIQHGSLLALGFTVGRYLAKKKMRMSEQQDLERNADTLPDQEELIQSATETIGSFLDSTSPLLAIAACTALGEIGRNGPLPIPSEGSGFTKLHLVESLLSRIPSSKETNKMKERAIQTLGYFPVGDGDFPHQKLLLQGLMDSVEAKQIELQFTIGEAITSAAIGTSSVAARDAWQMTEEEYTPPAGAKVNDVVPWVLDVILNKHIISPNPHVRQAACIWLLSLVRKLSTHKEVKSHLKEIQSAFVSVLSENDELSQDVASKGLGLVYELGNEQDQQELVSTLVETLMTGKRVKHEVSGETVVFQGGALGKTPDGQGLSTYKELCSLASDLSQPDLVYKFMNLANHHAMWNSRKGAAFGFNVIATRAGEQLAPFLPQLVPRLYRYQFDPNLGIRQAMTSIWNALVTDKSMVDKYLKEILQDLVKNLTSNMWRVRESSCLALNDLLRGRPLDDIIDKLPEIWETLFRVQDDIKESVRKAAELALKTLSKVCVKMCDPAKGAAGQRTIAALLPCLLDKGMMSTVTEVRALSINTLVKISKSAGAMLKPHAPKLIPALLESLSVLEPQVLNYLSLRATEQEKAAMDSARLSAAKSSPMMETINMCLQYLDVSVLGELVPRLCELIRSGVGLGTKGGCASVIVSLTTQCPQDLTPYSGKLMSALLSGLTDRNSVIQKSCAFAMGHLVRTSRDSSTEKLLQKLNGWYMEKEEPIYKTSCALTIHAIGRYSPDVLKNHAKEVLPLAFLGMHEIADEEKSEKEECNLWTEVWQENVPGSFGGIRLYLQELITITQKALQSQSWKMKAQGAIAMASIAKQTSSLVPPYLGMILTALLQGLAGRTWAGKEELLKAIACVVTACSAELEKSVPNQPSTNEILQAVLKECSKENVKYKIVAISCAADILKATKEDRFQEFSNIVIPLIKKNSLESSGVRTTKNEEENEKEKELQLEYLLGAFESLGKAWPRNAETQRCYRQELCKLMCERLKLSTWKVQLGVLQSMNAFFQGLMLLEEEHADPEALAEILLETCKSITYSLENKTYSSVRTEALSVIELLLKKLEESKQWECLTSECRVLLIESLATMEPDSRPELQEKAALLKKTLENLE
UniProt Q8N511: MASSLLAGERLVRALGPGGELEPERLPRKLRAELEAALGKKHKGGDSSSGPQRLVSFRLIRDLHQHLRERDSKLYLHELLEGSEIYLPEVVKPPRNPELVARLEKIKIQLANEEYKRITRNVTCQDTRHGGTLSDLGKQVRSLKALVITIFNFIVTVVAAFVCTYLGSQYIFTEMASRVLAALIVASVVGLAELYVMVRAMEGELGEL
UniProt Q8WYJ6: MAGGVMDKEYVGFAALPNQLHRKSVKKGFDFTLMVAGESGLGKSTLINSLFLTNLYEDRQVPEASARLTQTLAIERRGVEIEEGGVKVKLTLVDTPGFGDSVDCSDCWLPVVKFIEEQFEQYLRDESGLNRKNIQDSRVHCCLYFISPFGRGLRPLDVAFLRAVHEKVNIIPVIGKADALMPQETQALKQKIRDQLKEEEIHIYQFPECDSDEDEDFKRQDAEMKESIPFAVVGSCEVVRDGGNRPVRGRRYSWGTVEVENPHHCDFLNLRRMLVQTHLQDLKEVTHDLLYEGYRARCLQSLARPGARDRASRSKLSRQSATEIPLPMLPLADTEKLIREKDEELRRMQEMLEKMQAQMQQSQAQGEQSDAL
UniProt P20674, whole entry: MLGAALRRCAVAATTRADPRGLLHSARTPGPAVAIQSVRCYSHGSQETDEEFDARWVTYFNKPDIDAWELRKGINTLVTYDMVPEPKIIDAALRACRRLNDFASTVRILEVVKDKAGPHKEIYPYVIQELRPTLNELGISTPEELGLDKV
UniProt O43598: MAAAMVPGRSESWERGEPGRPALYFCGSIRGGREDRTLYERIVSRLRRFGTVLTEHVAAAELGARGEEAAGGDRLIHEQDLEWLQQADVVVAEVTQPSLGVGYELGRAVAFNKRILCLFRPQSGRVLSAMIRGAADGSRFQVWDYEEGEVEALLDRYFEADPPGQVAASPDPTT

Compound: Nc1nc2c(ncn2[C@@H]2O[C@H](COP(=O)(O)OP(=O)(O)OP(=O)(O)O)[C@@H](O)[C@H]2O)c(=O)[nH]1 [guanosine triphosphate]
Assay: NP40-soluble protein abundance relative to vehicle (solubility fold change) (ratio); higher = more soluble protein in presence of GTP
Outline: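 Jurkat crude lysate (Dounce-homogenised) was treated with eight concentrations from 0.1 to 10 mM for 10 min at room temperature, then 3 min at 37 °C. It was solubilised with 0.8% NP40 and benzonase (60 min, 4 °C) and ultracentrifuged, and the supernatant was TMT-labelled for LC-MS/MS. Intensities were vsn-normalised, and the value is the fold change against the NP40-processed vehicle per replicate, from three independent experiments.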

| Target | NP40-soluble protein abundance (concentration: 0.1mM) | NP40-soluble protein abundance (concentration: 0.5mM) | NP40-soluble protein abundance (concentration: 1mM) | NP40-soluble protein abundance (concentration: 2mM) | NP40-soluble protein abundance (concentration: 4mM) | NP40-soluble protein abundance (concentration: 6mM) | NP40-soluble protein abundance (concentration: 8mM) | NP40-soluble protein abundance (concentration: 10mM) |
| --- | --- | --- | --- | --- | --- | --- | --- | --- |
| J3KPT0 and related entries (UniProt Q6V1X1) | 1.01 ± 0.042 | 1.01 ± 0.056 | 0.946 ± 0.073 | 0.949 ± 0.024 | 0.986 ± 0.04 | 0.905 ± 0.054 | 0.89 ± 0.058 | 0.829 ± 0.028 |
| J3KRX2 and related entries (UniProt Q8N1S5) | 1 ± 0.1 | 1 ± 0.075 | 1.06 ± 0.087 | 0.997 ± 0.061 | 1.07 ± 0.043 | 0.991 ± 0.096 | 1.07 ± 0.048 | 1.01 ± 0.056 |
| J3KNN3 and related entries (UniProt P15735) | 1.24 ± 0.25 | 1.2 ± 0.21 | 1.13 ± 0.15 | 1.2 ± 0.2 | 1.22 ± 0.2 | 1.16 ± 0.18 | 1.13 ± 0.21 | 1.11 ± 0.21 |
| K7ERC8 and related entries (UniProt Q06136) | 0.834 ± 0.1 | 0.877 ± 0.079 | 0.912 ± 0.1 | 0.943 ± 0.14 | 0.982 ± 0.11 | 0.868 ± 0.041 | 0.89 ± 0.11 | 0.958 ± 0.14 |
| H7C0D5 and related entries (UniProt Q9BSR8) | 1.02 ± 0.04 | 0.948 ± 0.1 | 0.924 ± 0.07 | 0.878 ± 0.083 | 0.984 ± 0.089 | 0.874 ± 0.049 | 0.951 ± 0.028 | 0.807 ± 0.043 |
| I3L0H8 and related entries (UniProt Q9NUU7) | 0.998 ± 0.056 | 1 ± 0.03 | 0.981 ± 0.048 | 0.936 ± 0.077 | 0.94 ± 0.075 | 0.926 ± 0.061 | 0.949 ± 0.075 | 0.902 ± 0.072 |
| K7EIY1 and related entries (UniProt Q9Y421) | 1.045 ± 0.0048 | 0.987 ± 0.15 | 1.07 ± 0.11 | 1.14 ± 0.14 | 1.25 ± 0.12 | 1.21 ± 0.2 | 1.24 ± 0.11 | 1.37 ± 0.088 |
| J3KMZ9 and related entries (UniProt P01130) | 1.07 ± 0.11 | 1.1 ± 0.14 | 1.16 ± 0.12 | 1.11 ± 0.071 | 1.09 ± 0.086 | 1.11 ± 0.12 | 1.17 ± 0.18 | 1.16 ± 0.15 |
| J3KTL2 and related entries (UniProt Q07955) | 0.955 ± 0.057 | 1.09 ± 0.095 | 1.26 ± 0.046 | 1.24 ± 0.097 | 1.25 ± 0.038 | 1.38 ± 0.044 | 1.53 ± 0.14 | 1.53 ± 0.16 |
| H0YKT5 and related entries (UniProt Q04726) | 0.975 ± 0.057 | 0.975 ± 0.069 | 0.973 ± 0.077 | 0.919 ± 0.086 | 0.91 ± 0.072 | 0.945 ± 0.068 | 1 ± 0.081 | 0.957 ± 0.056 |
| H0YC67 and related entries (UniProt Q96DB5) | 0.926 ± 0.025 | 0.873 ± 0.023 | 0.924 ± 0.011 | 0.926 ± 0.01 | 0.899 ± 0.036 | 0.901 ± 0.031 | 0.819 ± 0.08 | 0.872 ± 0.06 |
| K7EKW4 and related entries (UniProt Q96AB3) | 1.01 ± 0.042 | 0.969 ± 0.025 | 0.901 ± 0.054 | 0.949 ± 0.056 | 0.915 ± 0.039 | 0.871 ± 0.026 | 0.859 ± 0.075 | 0.871 ± 0.083 |
| K7EP32 and related entries (UniProt Q9BZV1) | 1.06 ± 0.13 | 1.07 ± 0.11 | 1.01 ± 0.14 | 0.994 ± 0.14 | 0.951 ± 0.082 | 0.966 ± 0.083 | 0.97 ± 0.078 | 0.913 ± 0.15 |
| J3KTA1 and related entries (UniProt Q96IG2) | 1.13 ± 0.03 | 1.08 ± 0.029 | 0.991 ± 0.076 | 1.03 ± 0.13 | 1.01 ± 0.073 | 1.03 ± 0.024 | 0.911 ± 0.029 | 0.863 ± 0.094 |
| H3BM79 and related entries (UniProt Q9H8T0) | 1.11 ± 0.1 | 0.965 ± 0.14 | 1.02 ± 0.043 | 1.08 ± 0.11 | 0.969 ± 0.18 | 1.04 ± 0.11 | 1.06 ± 0.19 | 0.994 ± 0.14 |
| H0Y9P9 and related entries (UniProt Q9H8P0) | 1.01 ± 0.037 | 1.06 ± 0.023 | 0.949 ± 0.074 | 1.02 ± 0.054 | 0.979 ± 0.023 | 0.94459 ± 0.00082 | 0.858 ± 0.018 | 0.897 ± 0.053 |
| K7EIU8 and related entries (UniProt Q13485) | 0.968 ± 0.025 | 0.969 ± 0.019 | 0.904 ± 0.048 | 0.919 ± 0.053 | 0.879 ± 0.03 | 0.901 ± 0.012 | 0.866 ± 0.074 | 0.856 ± 0.065 |
| H1UBN3 and related entries (UniProt O95067+H1UBN3) | 0.998 ± 0.059 | 0.952 ± 0.07 | 0.975 ± 0.024 | 1 ± 0.06 | 1.02 ± 0.025 | 1.02 ± 0.031 | 1.02 ± 0.013 | 1.05 ± 0.051 |
| J3KN16 and related entries (UniProt Q5VYK3+J3KN16) | 1.01 ± 0.046 | 1.02 ± 0.031 | 0.974 ± 0.05 | 0.962 ± 0.038 | 0.953 ± 0.042 | 0.944 ± 0.026 | 0.92 ± 0.03 | 0.925 ± 0.029 |
| J3KS81 and related entries (UniProt Q8N511) | 0.9371 ± 0.009 | 0.882 ± 0.014 | 0.966 ± 0.033 | 0.986 ± 0.18 | 1.12 ± 0.056 | 1.1 ± 0.073 | 1.18 ± 0.049 | 1.22 ± 0.11 |
| I3L2M1 and related entries (UniProt Q8WYJ6) | 0.998 ± 0.041 | 0.995 ± 0.026 | 0.991 ± 0.033 | 0.958 ± 0.037 | 0.985 ± 0.038 | 0.957 ± 0.016 | 0.971 ± 0.029 | 0.96 ± 0.024 |
| H3BNX8 and related entries (UniProt P20674) | 1 ± 0.12 | 0.85 ± 0.084 | 1.16 ± 0.16 | 1.06 ± 0.1 | 1.14 ± 0.089 | 1.05 ± 0.09 | 1.14 ± 0.16 | 1.11 ± 0.21 |
| H3BMU3 and related entries (UniProt O60268) | 0.928 ± 0.032 | 0.988 ± 0.17 | 1.01 ± 0.18 | 0.95 ± 0.15 | 0.961 ± 0.14 | 0.918 ± 0.2 | 0.919 ± 0.067 | 0.998 ± 0.096 |
| H7C5G1 and related entries (UniProt Q2TAA2) | 1.03 ± 0.013 | 1.01 ± 0.046 | 0.973 ± 0.032 | 0.942 ± 0.027 | 0.92 ± 0.064 | 0.942 ± 0.048 | 0.888 ± 0.079 | 0.907 ± 0.099 |
| H0Y8X4 and related entries (UniProt O43598) | 0.856 ± 0.12 | 0.842 ± 0.15 | 0.823 ± 0.16 | 0.834 ± 0.13 | 0.849 ± 0.15 | 0.823 ± 0.14 | 0.78 ± 0.13 | 0.807 ± 0.12 |

Complete entries as entered above. Order of values: NP40-soluble protein abundance (concentration: 0.1mM)	NP40-soluble protein abundance (concentration: 0.5mM)	NP40-soluble protein abundance (concentration: 1mM)	NP40-soluble protein abundance (concentration: 2mM)	NP40-soluble protein abundance (concentration: 4mM)	NP40-soluble protein abundance (concentration: 6mM)	NP40-soluble protein abundance (concentration: 8mM)	NP40-soluble protein abundance (concentration: 10mM)
H1UBN3 and related entries (UniProt O95067+H1UBN3) in the list: 0.998 ± 0.059	0.952 ± 0.07	0.975 ± 0.024	1 ± 0.06	1.02 ± 0.025	1.02 ± 0.031	1.02 ± 0.013	1.05 ± 0.051
I3L2M1 and related entries (UniProt Q8WYJ6) in the list: 0.998 ± 0.041	0.995 ± 0.026	0.991 ± 0.033	0.958 ± 0.037	0.985 ± 0.038	0.957 ± 0.016	0.971 ± 0.029	0.96 ± 0.024
